Tested on: HLA-DR molecules of human dendritic cells
Experiment: Identification of naturally processed HLA-DR-associated peptide epitopes from dendritic cells pulsed with the therapeutic protein (L243 immunoprecipitation, 2D-LC/MS-MS)
Type: cell-based
Settings: IFN-β-1b 20 μg/ml, 24 hrs

Chains of the proteins cited; added tags and fusions are not shown. Lines headed by an entry give the natural chain unless they say otherwise; changes in a name come on top.
UniProt P01574: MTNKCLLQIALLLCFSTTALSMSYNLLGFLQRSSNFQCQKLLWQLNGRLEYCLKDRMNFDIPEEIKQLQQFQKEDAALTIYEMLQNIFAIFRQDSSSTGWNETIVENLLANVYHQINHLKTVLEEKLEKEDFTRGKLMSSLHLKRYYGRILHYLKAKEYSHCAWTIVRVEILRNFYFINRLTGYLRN

B1: Betaseron: IFN-β-1b expressed in E. coli, non-glycosylated, Met-1 deletion and Cys-17 to Ser point-mutation (protein, UniProt P01574 22-187, looked up, variant M1* C17S)
Interferon beta: SYNLLGFLQRSSNFQSQKLLWQLNGRLEYCLKDRMNFDIPEEIKQLQQFQKEDAALTIYEMLQNIFAIFRQDSSSTGWNETIVENLLANVYHQINHLKTVLEEKLEKEDFTRGKLMSSLHLKRYYGRILHYLKAKEYSHCAWTIVRVEILRNFYFINRLTGYLRN
modifications: non-glycosylated, E. coli
notes: IFN-β-1b expressed in E. coli, non-glycosylated, Met-1 deletion and Cys-17 to Ser point-mutation
- number of IFN-β-1b-derived epitopes among HLA-DR-associated ligands (dendritic cells HLA-DRB1*0101/0701): one
- number of IFN-β-1b-derived epitopes among HLA-DR-associated ligands (dendritic cells HLA-DRB1*0101/1401): 2
- number of IFN-β-1b-derived epitopes among HLA-DR-associated ligands (dendritic cells HLA-DRB1*0801/0801): 2
- number of IFN-β-1b-derived epitopes among HLA-DR-associated ligands (dendritic cells HLA-DRB1*1101/1404): 2
- number of IFN-β-1b-derived epitopes among HLA-DR-associated ligands (dendritic cells HLA-DRB1*1303/1501): 1
